{"source": "the supplement of paper PMC8728848", "experiment_in_all_cases": "glycan array binding signal (z-score within array); higher = stronger binding", "conditions_in_all_cases": "glycan notation: IUPAC condensed, linker removed", "key": {"[1]": {"molecular_target": "Neu5Ac(a2-3)Gal(b1-3)GlcNAc6S", "procedure,_shortened": "(§1)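 The binding signal is a Z-score computed within each array. Data were drawn from 3228 arrays in the Consortium for Functional Glycomics database, restricted to those with a known protein sequence. Scores were averaged over arrays of the same protein sequence at different concentrations or buffers, and over linkers, and negative values can be taken as non-binding.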"}, "[2]": {"molecular_target": "Neu5Ac(a2-3)Gal(b1-3)[Fuc(a1-4)]GlcNAc", "procedure,_shortened": "as §1"}, "[3]": {"molecular_target": "Neu5Ac(a2-3)Gal(b1-3)[Fuc(a1-4)]GlcNAc(b1-3)Gal(b1-3)[Fuc(a1-4)]GlcNAc", "procedure,_shortened": "as §1"}, "[4]": {"molecular_target": "Neu5Ac(a2-3)Gal(b1-3)[Fuc(a1-4)]GlcNAc(b1-3)Gal(b1-4)[Fuc(a1-3)]GlcNAc", "procedure,_shortened": "as §1"}, "[5]": {"molecular_target": "Neu5Ac(a2-3)Gal(b1-3)[GlcNAc(b1-6)]GalNAc", "procedure,_shortened": "as §1"}, "[6]": {"molecular_target": "Neu5Ac(a2-3)Gal(b1-3)[Neu5Ac(a2-6)]GalNAc", "procedure,_shortened": "as §1"}, "[7]": {"molecular_target": "Neu5Ac(a2-3)Gal(b1-3)[Neu5Ac(a2-6)]GlcNAc(b1-3)[Fuc(a1-3)[Gal(b1-4)]GlcNAc(b1-6)]Gal(b1-4)Glc", "procedure,_shortened": "as §1"}, "[8]": {"molecular_target": "Neu5Ac(a2-3)Gal(b1-3)]Neu5Ac(a2-3)Gal(b1-4)]GlcNAc", "procedure,_shortened": "as §1"}, "Neu5Ac(a2-3)Gal(b1-4)Glc": {"molecular_target": "Neu5Ac(a2-3)Gal(b1-4)Glc", "procedure,_shortened": "as §1"}, "[9]": {"molecular_target": "Neu5Ac(a2-3)Gal(b1-4)GlcNAc", "procedure,_shortened": "as §1"}, "[10]": {"molecular_target": "Neu5Ac(a2-3)Gal(b1-4)GlcNAc(b1-2)Man", "procedure,_shortened": "as §1"}, "[11]": {"molecular_target": "Neu5Ac(a2-3)Gal(b1-4)GlcNAc(b1-2)Man(a1-3)[GlcNAc(b1-4)][Neu5Ac(a2-3)Gal(b1-4)GlcNAc(b1-2)Man(a1-6)]Man(b1-4)GlcNAc(b1-4)GlcNAc", "procedure,_shortened": "as §1"}, "[12]": {"molecular_target": "Neu5Ac(a2-3)Gal(b1-4)GlcNAc(b1-2)Man(a1-3)[Neu5Ac(a2-3)Gal(b1-4)GlcNAc(b1-2)Man(a1-6)]Man(b1-4)GlcNAc(b1-4)GlcNAc", "procedure,_shortened": "as §1"}, "[13]": {"molecular_target": "Neu5Ac(a2-3)Gal(b1-4)GlcNAc(b1-2)Man(a1-3)[Neu5Ac(a2-3)Gal(b1-4)GlcNAc(b1-2)Man(a1-6)]Man(b1-4)GlcNAc(b1-4)[Fuc(a1-6)]GlcNAc", "procedure,_shortened": "as §1"}, "[14]": {"molecular_target": "Neu5Ac(a2-3)Gal(b1-4)GlcNAc(b1-2)Man(a1-3)[Neu5Ac(a2-6)Gal(b1-4)GlcNAc(b1-2)Man(a1-6)]Man(b1-4)GlcNAc(b1-4)GlcNAc", "procedure,_shortened": "as §1"}, "[15]": {"molecular_target": "Neu5Ac(a2-3)Gal(b1-4)GlcNAc(b1-2)[Neu5Ac(a2-3)Gal(b1-4)GlcNAc(b1-4)]Man(a1-3)[GlcNAc(b1-4)][Neu5Ac(a2-3)Gal(b1-4)GlcNAc(b1-2)[Neu5Ac(a2-3)Gal(b1-4)GlcNAc(b1-6)]Man(a1-6)]Man(b1-4)GlcNAc(b1-4)GlcNAc", "procedure,_shortened": "as §1"}, "[16]": {"molecular_target": "Neu5Ac(a2-3)Gal(b1-4)GlcNAc(b1-2)[Neu5Ac(a2-3)Gal(b1-4)GlcNAc(b1-4)]Man(a1-3)[GlcNAc(b1-4)][Neu5Ac(a2-3)Gal(b1-4)GlcNAc(b1-4)Man(a1-6)]Man(b1-4)GlcNAc(b1-4)GlcNAc", "procedure,_shortened": "as §1"}, "[17]": {"molecular_target": "Neu5Ac(a2-3)Gal(b1-4)GlcNAc(b1-2)[Neu5Ac(a2-3)Gal(b1-4)GlcNAc(b1-6)]Man(a1-6)[Neu5Ac(a2-3)Gal(b1-4)GlcNAc(b1-2)Man(a1-3)][GlcNAc(b1-4)]Man(b1-4)GlcNAc(b1-4)GlcNAc", "procedure,_shortened": "as §1"}, "[18]": {"molecular_target": "Neu5Ac(a2-3)Gal(b1-4)GlcNAc(b1-3)Gal", "procedure,_shortened": "as §1"}, "[19]": {"molecular_target": "Neu5Ac(a2-3)Gal(b1-4)GlcNAc(b1-3)Gal(b1-3)GlcNAc", "procedure,_shortened": "as §1"}, "[20]": {"molecular_target": "Neu5Ac(a2-3)Gal(b1-4)GlcNAc(b1-3)Gal(b1-4)GlcNAc", "procedure,_shortened": "as §1"}, "[21]": {"molecular_target": "Neu5Ac(a2-3)Gal(b1-4)GlcNAc(b1-3)Gal(b1-4)GlcNAc(b1-2)Man(a1-3)[Neu5Ac(a2-3)Gal(b1-4)GlcNAc(b1-3)Gal(b1-4)GlcNAc(b1-2)Man(a1-6)]Man(b1-4)GlcNAc(b1-4)GlcNAc", "procedure,_shortened": "as §1"}, "[22]": {"molecular_target": "Neu5Ac(a2-3)Gal(b1-4)GlcNAc(b1-3)Gal(b1-4)GlcNAc(b1-3)Gal(b1-4)GlcNAc", "procedure,_shortened": "as §1"}, "[23]": {"molecular_target": "Neu5Ac(a2-3)Gal(b1-4)GlcNAc(b1-3)Gal(b1-4)GlcNAc(b1-3)Gal(b1-4)GlcNAc(b1-2)Man(a1-3)[Neu5Ac(a2-3)Gal(b1-4)GlcNAc(b1-3)Gal(b1-4)GlcNAc(b1-3)Gal(b1-4)GlcNAc(b1-2)Man(a1-6)]GalNAc", "procedure,_shortened": "as §1"}, "[24]": {"molecular_target": "Neu5Ac(a2-3)Gal(b1-4)GlcNAc(b1-3)Gal(b1-4)GlcNAc(b1-3)GalNAc", "procedure,_shortened": "as §1"}, "[25]": {"molecular_target": "Neu5Ac(a2-3)Gal(b1-4)GlcNAc(b1-3)Gal(b1-4)GlcNAc(b1-3)[Neu5Ac(a2-3)Gal(b1-4)GlcNAc(b1-3)Gal(b1-4)GlcNAc(b1-6)]GalNAc", "procedure,_shortened": "as §1"}, "[26]": {"molecular_target": "Neu5Ac(a2-3)Gal(b1-4)GlcNAc(b1-3)Gal(b1-4)GlcNAc(b1-6)[Gal(b1-3)]GalNAc", "procedure,_shortened": "as §1"}, "[27]": {"molecular_target": "Neu5Ac(a2-3)Gal(b1-4)GlcNAc(b1-3)Gal(b1-4)[Fuc(a1-3)]GlcNAc", "procedure,_shortened": "as §1"}, "[28]": {"molecular_target": "Neu5Ac(a2-3)Gal(b1-4)GlcNAc(b1-3)GalNAc", "procedure,_shortened": "as §1"}, "[29]": {"molecular_target": "Neu5Ac(a2-3)Gal(b1-4)GlcNAc(b1-3)[Neu5Ac(a2-3)Gal(b1-4)GlcNAc(b1-6)]GalNAc", "procedure,_shortened": "as §1"}}, "note": "The list shows a part of the results.", "data": [{"binder": "Mermaid2 (Stilbonema majum) (protein) MGSSHHHHHHSSGLVPRGSHMAASGWLRSPQGTVVKLYRRSLSWSKADEFCKDVDGRLVVDRTADMHLFLIKNVLKEKKSRVWVGLRRTAPHSRTWIWSDGTRQNEDDLNTNLWLRDEPNDAAGEEECALFMYSPWEKAWGLNDYLCRGGCRSYQFICEKGIR", "values": [{"measurement": "glycan array binding signal (z-score)", "setting": "[1]", "value": -0.204}, {"measurement": "glycan array binding signal (z-score)", "setting": "[2]", "value": -0.173}, {"measurement": "glycan array binding signal (z-score)", "setting": "[3]", "value": 1.72}, {"measurement": "glycan array binding signal (z-score)", "setting": "[4]", "value": 3.06}, {"measurement": "glycan array binding signal (z-score)", "setting": "[5]", "value": -0.617}, {"measurement": "glycan array binding signal (z-score)", "setting": "[6]", "value": -0.341}, {"measurement": "glycan array binding signal (z-score)", "setting": "[7]", "value": -0.262}, {"measurement": "glycan array binding signal (z-score)", "setting": "[8]", "value": -0.44}, {"measurement": "glycan array binding signal (z-score)", "setting": "Neu5Ac(a2-3)Gal(b1-4)Glc", "value": 0.161}, {"measurement": "glycan array binding signal (z-score)", "setting": "[9]", "value": 0.097}, {"measurement": "glycan array binding signal (z-score)", "setting": "[10]", "value": 1.53}, {"measurement": "glycan array binding signal (z-score)", "setting": "[11]", "value": -0.654}, {"measurement": "glycan array binding signal (z-score)", "setting": "[12]", "value": -0.512}, {"measurement": "glycan array binding signal (z-score)", "setting": "[13]", "value": -0.44}, {"measurement": "glycan array binding signal (z-score)", "setting": "[14]", "value": 0.602}, {"measurement": "glycan array binding signal (z-score)", "setting": "[15]", "value": -0.756}, {"measurement": "glycan array binding signal (z-score)", "setting": "[16]", "value": 0.441}, {"measurement": "glycan array binding signal (z-score)", "setting": "[17]", "value": -0.6}, {"measurement": "glycan array binding signal (z-score)", "setting": "[18]", "value": -0.777}, {"measurement": "glycan array binding signal (z-score)", "setting": "[19]", "value": -0.39}, {"measurement": "glycan array binding signal (z-score)", "setting": "[20]", "value": -0.299}, {"measurement": "glycan array binding signal (z-score)", "setting": "[21]", "value": 0.453}, {"measurement": "glycan array binding signal (z-score)", "setting": "[22]", "value": 0.144}, {"measurement": "glycan array binding signal (z-score)", "setting": "[23]", "value": 1.45}, {"measurement": "glycan array binding signal (z-score)", "setting": "[24]", "value": -0.348}, {"measurement": "glycan array binding signal (z-score)", "setting": "[25]", "value": 0.561}, {"measurement": "glycan array binding signal (z-score)", "setting": "[26]", "value": -0.845}, {"measurement": "glycan array binding signal (z-score)", "setting": "[27]", "value": -0.386}, {"measurement": "glycan array binding signal (z-score)", "setting": "[28]", "value": -0.838}, {"measurement": "glycan array binding signal (z-score)", "setting": "[29]", "value": -0.484}]}]}
